Laboratory results from patent publication US20240423976A1, “COMPOSITIONS AND METHODS FOR TREATING THERAPEUTIC-INDUCED TOXICITIES” (THE BOARD OF REGENTS OF THE UNIVERSITY OF OKLAHOMA, priority 2023, published 2024).
Some results were stated once for a whole list of compounds, not compound by compound.

Assay: In vitro drug release kinetics from thermoresponsive hydrogel (Korsmeyer-Peppas model)
Assay type: physicochemical
Details: 37° C., PBS pH 7.4
Description: Two 24 well plates were taken equipped with 6.5 mm inserts (Transwell®, Costar, Corning, NY, USA) having 8 µm pores polycarbonate support membrane six in each plate. The developed hydrogel formulations containing FL-cHy-NPs and HK-cHy-NPs were filled in the inserts (n=3, in each plate and each formulation). One plate was placed at 37° C. while the other one was kept at 25° C. After 30 min, the receiver media (1 mL, PBS pH 7.4) was filled in each well-containing insert. Other wells were filled with deionized water to maintain humidity in the plate. […] The drug content (FL and HK) was extracted using DCM; solvent-solvent extraction. After evaporating the DCM, the extracted FL and HK content was dissolved in methanol (100 μL, 100% LC-MS grade). The drug quantification of FL and HK in each sample was done using HPLC using the same procedure described above. The release kinetics of FL and HK from both hydrogels were calculated using the Korsmeyer-Peppas model (eq 7). where, Mt is the mass of the drug released at time t; […]

| Compound | n (Korsmeyer-Peppas release mechanism exponent) |
| --- | --- |
| Fc1ccc(C(c2ccc(F)cc2)N2CCN(C/C=C/c3ccccc3)CC2)cc1 [FL, Flunarizine] | < 0.5 |
| C=CCc1ccc(O)c(-c2ccc(O)c(CC=C)c2)c1 [HK, Honokiol] | < 0.5 |
